Experimental data reported in paper PMC6632053, “Incorporation of Putative Helix-Breaking Amino Acids in the Design of Novel Stapled Peptides: Exploring Biophysical and Cellular Permeability Properties” (Molecules, 2019).

Tested on: p53 responsive β-lactamase reporter in HCT116 cells
Test: p53 beta-lactamase reporter gene cellular functional assay
Format: cell-based
Details: cellular EC50/Mdm2 Kd
Method: HCT116 cells were stably transfected with a p53 responsive β-lactamase reporter and were seeded into a 384-well plate at a density of 8000 cells per well. Cells were maintained in McCoy’s 5A Medium with 10% fetal bovine serum (FBS), Blasticidin, and Penicillin/Streptomycin. The cells were incubated overnight, followed by removal of cell growth media and replacement with Opti-MEM either containing 0% FBS or 10% FBS. […] The final working concentration of DMSO was 0.5%. β-lactamase activity was detected using the ToxBLAzer Dual Screen (Invitrogen), as per the manufacturer’s instructions. Measurements were made using the Envision multiplate reader (Perkin–Elmer).

Structure (SMILES)	Ratio (fold-shift between the binding affinity and cellular activity) (Table 2)	Ratio (fold-shift between the binding affinity and cellular activity) (Table 1)
CC(=O)N[C@@H](CCCCN=[N+]=[N-])C(=O)NCCC(=O)N[C@@H](CC(C)C)C(=O)N[C@H](C(=O)N[C@@H](Cc1ccccc1)C(=O)N[C@]1(C)CCCCCCC=CCCC[C@@](C)(C(=O)N[C@@H](CO)C(=O)N[C@@H](C)C(=O)N[C@@H](C)C(N)=O)NC(=O)[C@H](CC2CCC2)NC(=O)[C@@H]2CCCN2C(=O)[C@H](C)NC(=O)[C@H](Cc2c[nH]c3ccccc23)NC(=O)[C@H](Cc2ccc(O)cc2)NC(=O)[C@H](CCC(=O)O)NC1=O)[C@@H](C)O [Peptide Q9P]	41	
CC(=O)N[C@@H](CC(C)C)C(=O)N[C@H](C(=O)N[C@@H](Cc1ccccc1)C(=O)N[C@]1(C)CCCCCCC=CCCC[C@@](C)(C(=O)N[C@@H](C)C(=O)N[C@@H](C)C(=O)N[C@@H](C)C(N)=O)NC(=O)[C@H](CC2CCC2)NC(=O)[C@H](CC(C)C)NC(=O)[C@H](CCC(N)=O)NC(=O)[C@H](Cc2c[nH]c3ccccc23)NC(=O)[C@H](Cc2ccc(O)cc2)NC(=O)[C@H](CCC(=O)O)NC1=O)[C@@H](C)O [Peptide S12A] (Ac-LTF[R8]EYWQL[Cba][S5]AAA-NH2; staple 4-11)		17
CC(=O)N[C@@H](CCCCN=[N+]=[N-])C(=O)NCCC(=O)N[C@@H](CC(C)C)C(=O)N[C@H](C(=O)N[C@@H](Cc1ccccc1)C(=O)N[C@]1(C)CCCCCCC=CCCC[C@@](C)(C(=O)NCC(=O)N[C@@H](C)C(=O)N[C@@H](C)C(N)=O)NC(=O)[C@H](CC2CCC2)NC(=O)[C@H](CCC(N)=O)NC(=O)[C@H](C)NC(=O)[C@H](Cc2c[nH]c3ccccc23)NC(=O)[C@H](Cc2ccc(O)cc2)NC(=O)[C@H](CCC(=O)O)NC1=O)[C@@H](C)O [Peptide S12G]	34	
CC(=O)N[C@@H](CCCCN=[N+]=[N-])C(=O)NCCC(=O)N[C@@H](CC(C)C)C(=O)N[C@H](C(=O)N[C@@H](Cc1ccccc1)C(=O)N[C@]1(C)CCCCCCC=CCCC[C@@](C)(C(=O)N2CCC[C@H]2C(=O)N[C@@H](C)C(=O)N[C@@H](C)C(N)=O)NC(=O)[C@H](CC2CCC2)NC(=O)[C@H](CCC(N)=O)NC(=O)[C@H](C)NC(=O)[C@H](Cc2c[nH]c3ccccc23)NC(=O)[C@H](Cc2ccc(O)cc2)NC(=O)[C@H](CCC(=O)O)NC1=O)[C@@H](C)O [Peptide S12P]	80	
CC(=O)N[C@@H](CC(C)C)C(=O)N[C@@H](C)C(=O)N[C@@H](Cc1ccccc1)C(=O)N[C@]1(C)CCCCCCC=CCCC[C@@](C)(C(=O)N[C@@H](CO)C(=O)N[C@@H](C)C(=O)N[C@@H](C)C(N)=O)NC(=O)[C@H](CC2CCC2)NC(=O)[C@H](CC(C)C)NC(=O)[C@H](CCC(N)=O)NC(=O)[C@H](Cc2c[nH]c3ccccc23)NC(=O)[C@H](Cc2ccc(O)cc2)NC(=O)[C@H](CCC(=O)O)NC1=O [Peptide T2A] (Ac-LAF[R8]EYWQL[Cba][S5]SAA-NH2; staple 4-11)		47
CC(=O)N[C@@H](CC(C)C)C(=O)N[C@H](C(=O)N[C@@H](Cc1ccccc1)C(=O)N[C@]1(C)CCCCCCC=CCCC[C@@](C)(C(=O)N[C@@H](CO)C(=O)N[C@@H](C)C(=O)N[C@@H](C)C(N)=O)NC(=O)[C@H](CC2CCC2)NC(=O)[C@H](CC(C)C)NC(=O)[C@H](CCC(N)=O)NC(=O)[C@H](C)NC(=O)[C@H](Cc2ccc(O)cc2)NC(=O)[C@H](CCC(=O)O)NC1=O)[C@@H](C)O [Peptide W7A] (Ac-LTF[R8]EYAQL[Cba][S5]SAA-NH2; staple 4-11)		2
CC(=O)N[C@@H](CC(C)C)C(=O)N[C@H](C(=O)N[C@@H](Cc1ccccc1)C(=O)N[C@]1(C)CCCCCCC=CCCC[C@@](C)(C(=O)N[C@@H](CO)C(=O)N[C@@H](C)C(=O)N[C@@H](C)C(N)=O)NC(=O)[C@H](CC2CCC2)NC(=O)[C@H](CC(C)C)NC(=O)[C@H](CCC(N)=O)NC(=O)[C@H](Cc2c[nH]c3ccccc23)NC(=O)[C@H](C)NC(=O)[C@H](CCC(=O)O)NC1=O)[C@@H](C)O [Peptide Y6A] (Ac-LTF[R8]EAWQL[Cba][S5]SAA-NH2; staple 4-11)		14
CC(=O)N[C@@H](CCCCN=[N+]=[N-])C(=O)NCCC(=O)N[C@@H](CC(C)C)C(=O)N[C@H](C(=O)N[C@@H](Cc1ccccc1)C(=O)N[C@]1(C)CCCCCCC=CCCC[C@@](C)(C(=O)N[C@@H](CO)C(=O)N[C@@H](C)C(=O)N[C@@H](C)C(N)=O)NC(=O)[C@H](CC2CCC2)NC(=O)[C@H](CCC(N)=O)N(C)C(=O)[C@H](C)NC(=O)[C@H](Cc2c[nH]c3ccccc23)NC(=O)[C@H](Cc2ccc(O)cc2)NC(=O)[C@H](CCC(=O)O)NC1=O)[C@@H](C)O [Q9(N-methyl L-Gln)]	>237	

Bridge positions count the residues as written; N and C are the ends. Square brackets hold non-standard residues; d marks the D form. Peptide text beside a SMILES is read from it. R8 = C=CCCCCCC[C@@](C)(N)C(=O)O; Cba = N[C@@H](CC1CCC1)C(=O)O; S5 = C=CCCC[C@](C)(N)C(=O)O
